These are yes or no findings as the source states them, for the method shown. In cells and extracts the contact can be indirect. Here binding means that the protein was enriched with, or labelled near, the bait; the list need not be complete. For some assays here: No binding means not detected with the bait. Each block holds one binder with its values, some of them ahead of it.
Legend:
[1] = molecular target: Bcl-2 nineteen kilodalton interacting protein 3 (human) (human (endogenous in LV myocardium)) (UniProt Q12983); assay: affinity purification with mass spectrometry; 500 ug lysate of human HFrEF LV myocardium (n = 3, taken at LVAD implantation) incubated with 10 ug mouse monoclonal BNIP3 antibody (Abcam ab10433); eluate on SDS-PAGE, in-gel trypsin digestion, nano-LC-MS/MS
[2] = molecular target: Bcl-2 nineteen kilodalton interacting protein 3 (rat) (rat (endogenous in LV myocardium and adult cardiac myocytes)); assay: affinity purification with mass spectrometry; 500 ug lysate of rat LV myocardium (Sham n = 3, pressure overload HFrEF n = 3) incubated with 10 ug mouse monoclonal BNIP3 antibody (Abcam ab10433); eluate on SDS-PAGE, in-gel trypsin digestion, nano-LC-MS/MS, label-free quantification

Sequences of proteins named here, by UniProt entry; tags and fusion partners are left off.
UniProt Q12983: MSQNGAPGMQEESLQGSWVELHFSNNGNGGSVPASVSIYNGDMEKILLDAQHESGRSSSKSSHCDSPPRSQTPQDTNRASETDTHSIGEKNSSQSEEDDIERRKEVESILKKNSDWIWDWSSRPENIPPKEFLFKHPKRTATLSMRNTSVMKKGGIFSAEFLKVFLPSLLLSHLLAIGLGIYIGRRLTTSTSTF

B1: mt-2-oxoglutarate/malate carrier protein (human) (protein, UniProt Q02978 1-314)
chain: MAATASAGAGGIDGKPRTSPKSVKFLFGGLAGMGATVFVQPLDLVKNRMQLSGEGAKTREYKTSFHALTSILKAEGLRGIYTGLSAGLLRQATYTTTRLGIYTVLFERLTGADGTPPGFLLKAVIGMTAGATGAFVGTPAEVALIRMTADGRLPADQRRGYKNVFNALIRITREEGVLTLWRGCIPTMARAVVVNAAQLASYSQSKQFLLDSGYFSDNILCHFCASMISGLVTTAASMPVDIAKTRIQNMRMIDGKPEYKNGLDVLFKVVRYEGFFSLWKGFTPYYARLGPHTVLTFIFLEQMNKAYKRLFLSG
binding [1]: binds

B2: mt-phosphate carrier protein (human) (protein, UniProt Q00325 50-362)
chain: AVEEQYSCDYGSGRFFILCGLGGIISCGTTHTALVPLDLVKCRMQVDPQKYKGIFNGFSVTLKEDGVRGLAKGWAPTFLGYSMQGLCKFGFYEVFKVLYSNMLGEENTYLWRTSLYLAASASAEFFADIALAPMEAAKVRIQTQPGYANTLRDAAPKMYKEEGLKAFYKGVAPLWMRQIPYTMMKFACFERTVEALYKFVVPKPRSECSKPEQLVVTFVAGYIAGVFCAIVSHPADSVVSVLNKEKGSSASLVLKRLGFKGVWKGLFARIIMIGTLTALQWFIYDSVKVYFRLPRPPPPEMPESLKKKLGLTQ
binding [1]: binds

B3: vinculin (protein, UniProt P85972 1-1066)
chain: MPVFHTRTIESILEPVAQQISHLVIMHEEGEVDGKAIPDLTAPVAAVQAAVSNLVRVGKETVQTTEDQILKRDMPPAFIKVENACTKLVQAAQMLQSDPYSVPARDYLIDGSRGILSGTSDLLLTFDEAEVRKIIRVCKGILEYLTVAEVVETMEDLVTYTKNLGPGMTKMAKMIDERQQELTHQEHRVMLVNSMNTVKELLPVLISAMKIFVTTKNSKNQGIEEALKNRNFTVGKMSAEINEIIRVLQLTSWDEDAWASKDTEAMKRALASIDSKLNQAKGWLRDPNASPGDAGEQAIRQILDEAGKVGELCAGKERREILGTCKMLGQMTDQVADLRARGQGASPVAMQKAQQVSQGLDVLTAKVENAARKLEAMTNSKQSIAKKIDAAQNWLADPNGGPEGEEQIRGALAEARKIAELCDDPKERDDILRSLGEIAALTSKLGDLRRQGKGDSPEARALAKQVATALQNLQTKTNRAVANSRPAKAAVHLEGKIEQAQRWIDNPTVDDRGVGQAAIRGLVAEGHRLANVMMGPYRQDLLAKCDRVDQLAAQLADLAARGEGESPQARALASQLQDSLKDLKTQMQEAMTQEVSDVFSDTTTPIKLLAVAATAPPDAPNREEVFDERAANFENHSGRLGATAEKAAAVGAANKSTVEGIQASVKTARELTPQVISAARILLRNPGNQAAYEHFETMKNQWIDNVEKMTGLVDEAIDTKSLLDASEEAIKKDLDKCKVAMANIQPQMLVAGATSIARRANRILLVAKREVENSEDPKFREAVKAASDELSKTISPMVMDAKAVAGNISDPGLQKSFLDSGYRILGAVAKVREAFQPQEPDFPPPPPDLEQLRLTDELAPPKPPLPEGEVPPPRPPPPEEKDEEFPEQKAGEVINQPMMMAARQLHDEARKWSSKGNDIIAAAKRMALLMAEMSRLVRGGSGTKRALIQCAKDIAKASDEVTRLAKEVAKQCTDKRIRTNLLQVCERIPTISTQLKILSTVKATMLGRTNISDEESEQATEMLVHNAQNLMQSVKETVREAEAASIKIRTDAGFTLRWVRKTPWYQ
binding [2]: binds

More lines, now with the values ahead:

binding [2]: no binding
B4: TIMM8b (protein, UniProt P62078 1-83)
chain: MAELGEADEAELQRLVAAEQQKAQFTAQVHHFMELCWDKCVEKPGSRLDSRTENCLSSCVDRFIDTTLAITGRFAQIVQKGGQ

binding [2]: no binding
B5: TIMM9 (protein, UniProt Q9WV97 1-89)
chain: MAAQIPESDQIKQFKEFLGTYNKLTETCFLDCVKDFTTREVKPEEVTCSEHCLQKYLKMTQRISMRFQEYHIQQNEALAAKAGLLGQPR

Reference: publication PMC9105187
